According to patent US4699981A, “Cephalosporin derivatives” (Taisho Pharmaceutical Co., Ltd., priority 1985, dated 1987):

Test: Concentration of the compound in blood after oral administration to rats (bioassay)
Format: in vivo, Male wister rats
Conditions: rat, 50 mg/kg
Method: Male wister rats (7 weeks old) were administered orally with the test compound, and the change of the concentration of the compound in blood was measured.
Dosage of the test compound: 50 mg/kg
Quantitative method: Bioassy
test bacterium: Escherichia coli SC507)

**Q.** Which concentration at 1 h (1.0 hour) does the source give for `CC1=C(C(=O)O)N2C(=O)[C@@H](NC(=O)[C@H](N)c3ccccc3)[C@H]2SC1` [YY, Cefalexin, reference compound] here?
**A.** Its concentration at 1 h is 14800 ng/mL.

**Q.** And the concentration at 2 h (2.0 hours)?
**A.** The concentration at 2 h was 11200 ng/mL.

**Q.** What about the concentration at 4 h (4.0 hours) of the same molecule?
**A.** Its concentration at 4 h is 3100 ng/mL.
